No constants are given. Whether binding was seen depends on the method and setting. Binding seen in cells or lysates may run through a third protein. Some entries that bind do so weakly or less than the wild type.
B1: Rad21-PK (cohesin kleisin subunit Rad21) (protein, UniProt P30776 1-628)
chain: MFYSEAILSKKGPLAKVWLAAHWEKKLSKVQTLHTSIEQSVHAIVTEETAPMALRLSGQLMLGVVRIYSRKARYLLEDCTEALMRLKMSFQPGQVDMIEPATALQSLKGKDAVTQSANLTLPETITEFDLLVPDSTFDFQWSQLLRTPSRSSNTLELHSLPISSSPSFPSSQLSIEAGRNAQVESGFSLGESFAHVGNDMQFHLPISNSGAATPRSVHSDNQSQISIEVGRDAPAAAATDLSGIIGPQMTKSPASSVTHFSTPSMLPIGGTSLDDELLAPVDDLNLDLGLDDLLGDEQGANAPAIEADEQAETSSIHLPSDIMEDDSSRPAAAGVEEGQVVESATAPQQEKINPQKTVRRQRAIIDPVTELSSKQMKKQLADTSSITSPLCLNTSSIVFNATVNFTRNGKFNTSIFSSNLNPKVNELLQADFKQAILRKRKNESPEEVEPAKHQRTDTSTENQETAEVLDPEEIAAAELANITEAAIATLPQETVVQPEGEAPELGSPMGFPVTALESADDSLFDAPPVMLDEADLLGSERLDSSVSEALPSSQTAKDSLRNKWDPYTEGEKVSFQTLSAGCNREEAVQLFFDVLVLATKDVISVKQDVAIQNEITLTAKRGMLLSSL

Protein sequences, listed by entry. Tags and fused reporters are not part of them.
UniProt Q9Y7K2: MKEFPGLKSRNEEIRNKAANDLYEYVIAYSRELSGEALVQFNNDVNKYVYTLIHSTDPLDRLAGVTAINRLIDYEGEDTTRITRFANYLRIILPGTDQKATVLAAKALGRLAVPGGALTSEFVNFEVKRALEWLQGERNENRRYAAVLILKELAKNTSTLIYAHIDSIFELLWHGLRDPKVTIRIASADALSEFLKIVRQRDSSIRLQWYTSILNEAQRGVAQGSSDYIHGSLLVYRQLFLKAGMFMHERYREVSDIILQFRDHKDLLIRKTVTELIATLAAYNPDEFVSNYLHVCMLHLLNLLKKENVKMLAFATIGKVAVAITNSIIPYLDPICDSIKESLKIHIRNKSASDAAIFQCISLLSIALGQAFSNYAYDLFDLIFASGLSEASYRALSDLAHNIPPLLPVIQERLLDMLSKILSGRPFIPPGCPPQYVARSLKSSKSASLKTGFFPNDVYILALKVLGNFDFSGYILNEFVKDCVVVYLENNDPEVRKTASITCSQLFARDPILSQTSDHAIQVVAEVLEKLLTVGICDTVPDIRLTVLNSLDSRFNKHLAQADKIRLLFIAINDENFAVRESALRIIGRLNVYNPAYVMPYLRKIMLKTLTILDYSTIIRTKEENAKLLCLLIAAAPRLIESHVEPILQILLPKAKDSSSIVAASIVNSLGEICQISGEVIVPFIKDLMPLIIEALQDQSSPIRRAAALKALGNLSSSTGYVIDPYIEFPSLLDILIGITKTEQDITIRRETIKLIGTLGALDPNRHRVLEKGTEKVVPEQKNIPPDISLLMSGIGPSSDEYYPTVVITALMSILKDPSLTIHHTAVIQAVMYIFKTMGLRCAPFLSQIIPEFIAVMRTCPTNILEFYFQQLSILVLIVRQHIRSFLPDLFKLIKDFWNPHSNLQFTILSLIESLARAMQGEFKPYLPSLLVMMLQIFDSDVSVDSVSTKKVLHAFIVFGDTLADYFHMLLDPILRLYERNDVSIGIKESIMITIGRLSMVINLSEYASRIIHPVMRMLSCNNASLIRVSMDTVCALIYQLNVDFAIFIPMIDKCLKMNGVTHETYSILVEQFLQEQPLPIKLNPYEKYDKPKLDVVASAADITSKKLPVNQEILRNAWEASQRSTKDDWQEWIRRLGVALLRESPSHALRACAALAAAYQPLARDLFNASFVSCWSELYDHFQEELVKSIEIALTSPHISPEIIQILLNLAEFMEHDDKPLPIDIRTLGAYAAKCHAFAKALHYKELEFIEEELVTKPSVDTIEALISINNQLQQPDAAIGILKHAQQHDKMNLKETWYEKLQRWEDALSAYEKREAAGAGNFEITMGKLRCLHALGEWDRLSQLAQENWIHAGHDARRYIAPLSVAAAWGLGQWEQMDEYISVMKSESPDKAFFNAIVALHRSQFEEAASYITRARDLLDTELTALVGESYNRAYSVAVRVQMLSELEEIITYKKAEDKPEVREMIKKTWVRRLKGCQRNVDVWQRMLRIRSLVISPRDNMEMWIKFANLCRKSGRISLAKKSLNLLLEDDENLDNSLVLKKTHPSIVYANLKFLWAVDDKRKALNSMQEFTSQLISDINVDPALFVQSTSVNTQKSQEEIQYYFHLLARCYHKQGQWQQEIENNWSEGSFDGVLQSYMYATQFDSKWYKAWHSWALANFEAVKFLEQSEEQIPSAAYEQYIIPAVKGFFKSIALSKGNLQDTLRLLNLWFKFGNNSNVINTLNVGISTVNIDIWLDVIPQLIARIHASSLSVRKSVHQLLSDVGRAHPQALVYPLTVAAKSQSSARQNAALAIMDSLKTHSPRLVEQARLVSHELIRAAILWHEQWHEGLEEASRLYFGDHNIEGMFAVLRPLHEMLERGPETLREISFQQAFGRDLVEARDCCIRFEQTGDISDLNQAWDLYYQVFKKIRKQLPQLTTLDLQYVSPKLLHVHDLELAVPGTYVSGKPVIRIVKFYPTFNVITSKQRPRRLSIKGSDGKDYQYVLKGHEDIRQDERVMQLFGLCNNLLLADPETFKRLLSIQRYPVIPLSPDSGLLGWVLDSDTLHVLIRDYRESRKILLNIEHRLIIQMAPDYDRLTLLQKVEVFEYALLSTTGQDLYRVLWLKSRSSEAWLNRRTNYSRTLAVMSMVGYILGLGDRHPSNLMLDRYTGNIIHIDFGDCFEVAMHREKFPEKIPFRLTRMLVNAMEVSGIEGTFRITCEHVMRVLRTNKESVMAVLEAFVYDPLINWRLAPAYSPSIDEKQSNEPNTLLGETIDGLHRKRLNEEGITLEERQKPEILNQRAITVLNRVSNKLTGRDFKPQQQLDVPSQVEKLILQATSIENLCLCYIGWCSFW

What was measured:
[1] = biological target: T1, Rad21-PK (cohesin kleisin subunit Rad21) (S. pombe) (UniProt P30776); experiment: co-IP; Rad21-PK IP from protein extracts of cdc10-129-arrested cells, western blot; repeated in mip1-R401G and mip1+ cells
T1 sequence: B1 chain

Tor2-FLAG (S. pombe) = Tor2-FLAG (S. pombe) (UniProt Q9Y7K2); experiment: co-IP; Tor2-FLAG IP from protein extracts of cycling cells (Figure 4C) and of cdc10-arrested mip1-R401G and mip1+ cells (Figure 4-figure supplement 1C), western blot

Molecule	binding [1]	binding (Tor2-FLAG (S. pombe))
Tor2-FLAG (from UniProt Q9Y7K2 1-2337)	binds	
B1		binds
